Values quoted from earlier work in patent US20260256818A1, “NOVEL CO-DRUG, CO-ADMINISTRATION, AND SEQUENTIAL ADMINISTRATION OF BISPECIFIC RBP4/TTR LIGAND AND C20-D3-RETINOL FOR ELIMINATION OF MECHANISM-BASED OCULAR ADVERSE EFFECTS IN TREATING MACULAR DEGENERATION AND TTR AMYLOIDOSIS” (The Trustees of Columbia University in the City of New York, priority 2023, published 2026).

Conditions: in vitro; cited from earlier work

For [2H]C([2H])([2H])C(/C=C/C=C(C)/C=C/C1=C(C)CCCC1(C)C)=C\C=O [C20-D3-retinaldehyde], the “dimer formation less rapid than unlabeled retinaldehyde” value is listed as 12 times and the “reduction of bisretinoid A2E formation” value is listed as 7 fold.
